These are yes or no findings as the source states them, for the method shown. In cells and extracts the contact can be indirect. Some entries that bind do so weakly or less than the wild type. For some assays here: Where a sequence is shown, tags or fusion partners need not be part of it. One block for each binder: values may come before it.
How the values were obtained:
[1] = target: T1, stathmin1-Flag (wild type) (UniProt P16949); test: co-IP; 293T cells transiently transfected for 48 h, lysed with 0.1% NP40 with 1 mM PMSF and 1 mM Na3VO4; lysate precleaned by IgG, HA, MYC or Flag beads overnight at 4 °C, immunoblot; cells treated with NAM, MG132, or co-transfected with ERBB2^S310F-Flag, PCAF-HA, sirt2-HA or Ub-MYC as told for each panel
T1 sequence: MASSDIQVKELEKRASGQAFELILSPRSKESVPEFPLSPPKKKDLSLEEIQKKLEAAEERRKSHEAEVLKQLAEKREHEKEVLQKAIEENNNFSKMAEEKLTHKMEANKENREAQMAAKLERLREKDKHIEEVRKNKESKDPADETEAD

[2] = target: T2, stathmin1 overexpressed in GBC-SD and SGC-996 stable cells (UniProt P16949); test: co-IP; GBC-SD and SGC-996 stable cells (stathmin1 overexpression or ERBB2^S310F overexpression); cells treated with NAM, binimetinib, or siRNA against PCAF or sirt2 as told for each panel; immunoblot
T2 sequence: T1 sequence

binding [1]: binds
B1: RLIM-HA (enzyme, UniProt Q9NVW2 1-624)
chain: MENSDSNDKGSGDQSAAQRRSQMDRLDREEAFYQFVNNLSEEDYRLMRDNNLLGTPGESTEEELLRRLQQIKEGPPPQNSDENRGGDSSDDVSNGDSIIDWLNSVRQTGNTTRSGQRGNQSWRAVSRTNPNSGDFRFSLEINVNRNNGSQNSENENEPSARRSSGENVENNSQRQVENPRSESTSARPSRSERNSTEALTEVPPTRGQRRARSRSPDHRRTRARAERSRSPLHPMSEIPRRSHHSISSQTFEHPLVNETEGSSRTRHHVTLRQQISGPELLSRGLFAASGTRNASQGAGSSDTAASGESTGSGQRPPTIVLDLQVRRVRPGEYRQRDSIASRTRSRSQTPNNTVTYESERGGFRRTFSRSERAGVRTYVSTIRIPIRRILNTGLSETTSVAIQTMLRQIMTGFGELSYFMYSDSDSEPTGSVSNRNMERAESRSGRGGSGGGSSSGSSSSSSSSSSSSSSSSSSSSPSSSSGGESSETSSDLFEGSNEGSSSSGSSGARREGRHRAPVTFDESGSLPFLSLAQFFLLNEDDDDQPRGLTKEQIDNLAMRSFGENDALKTCSVCITEYTEGNKLRKLPCSHEYHVHCIDRWLSENSTCPICRRAVLASGNRESVV

binding [2]: binds
B2: RLIM in GBC-SD and SGC-996 stable cells (enzyme, UniProt Q9NVW2 1-624)
chain: B1 chain

— publication PMC9114396
